Values quoted from earlier work as cited in patent publication US6696436B1, “B-homoestra-1,3,5(10)-trienes as modulators of tubulin polymerization” (The United States of America as represented by the …, priority 1999, dated 2004).
At least one compound was matched to its structure with a doubt left.

Conditions: cited from earlier work

CCOc1cc2c(cc1O)CC[C@@H]1[C@@H]2CC[C@]2(C)[C@@H](O)CC[C@@H]12 [2-ethoxyestradiol]
Cytotoxicity relative to 2ME: 10 fold
